# Measured values: PMC10721955
# These are yes or no findings as the source states them, for the method shown. For some assays here: In cells and extracts the contact can be indirect. Some results given as binding are weak or reduced against the parent protein; the word gives no strength. Where a sequence is shown, tags or fusion partners need not be part of it.
# T1: Myc-tagged human SRF (serum response factor), in vitro translated (human) (UniProt P11831)
# T1 sequence: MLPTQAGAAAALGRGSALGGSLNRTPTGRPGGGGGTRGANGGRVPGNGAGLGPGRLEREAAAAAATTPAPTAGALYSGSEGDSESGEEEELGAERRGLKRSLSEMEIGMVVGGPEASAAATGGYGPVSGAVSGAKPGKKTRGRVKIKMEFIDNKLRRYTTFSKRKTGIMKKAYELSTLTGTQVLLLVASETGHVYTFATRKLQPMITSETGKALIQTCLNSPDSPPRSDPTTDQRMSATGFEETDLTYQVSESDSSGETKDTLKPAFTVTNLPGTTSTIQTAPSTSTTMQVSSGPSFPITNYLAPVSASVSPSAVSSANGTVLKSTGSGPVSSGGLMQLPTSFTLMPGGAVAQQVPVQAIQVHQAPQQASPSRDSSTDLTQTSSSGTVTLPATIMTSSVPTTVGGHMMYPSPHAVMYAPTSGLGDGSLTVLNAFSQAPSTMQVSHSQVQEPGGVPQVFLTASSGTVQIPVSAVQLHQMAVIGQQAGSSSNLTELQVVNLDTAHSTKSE
# T2: HA-tagged human CRP2 (cysteine-and glycine-rich protein 2), in vitro translated (human) (UniProt Q16527)
# T2 sequence: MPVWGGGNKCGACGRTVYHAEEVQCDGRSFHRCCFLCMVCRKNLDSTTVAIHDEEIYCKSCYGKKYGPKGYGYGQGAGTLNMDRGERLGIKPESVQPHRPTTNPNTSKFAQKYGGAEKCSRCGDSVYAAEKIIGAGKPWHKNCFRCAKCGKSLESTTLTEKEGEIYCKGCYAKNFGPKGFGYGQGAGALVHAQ
# What was measured:
# [1] = biological target: T1, Myc-tagged human SRF (serum response factor), in vitro translated (human); test: DNA affinity binding assay; biotinylated 3xCArG probe on Streptavidin M-280 Dynabeads incubated with in vitro translated proteins at 4°C for 3 hours with rotation; probe-bound proteins detected by immunoblot; control Dynabeads and free 3xCArG as controls
# [2] = biological target: T2, HA-tagged human CRP2 (cysteine-and glycine-rich protein 2), in vitro translated (human); test: co-IP; in vitro protein binding assay: mixtures (500 ul) of in vitro translated tagged proteins (wheat germ extract) immunoprecipitated with anti-HA affinity matrix or anti-Flag M2 gel (control gel beside), immunoblot; relative binding affinity normalised to the control = 100%
binding [1],binding [2],Binder
binds,,"HA-tagged human CRP2 (cysteine-and glycine-rich protein 2), in vitro translated (protein, UniProt Q16527 1-193) MPVWGGGNKCGACGRTVYHAEEVQCDGRSFHRCCFLCMVCRKNLDSTTVAIHDEEIYCKSCYGKKYGPKGYGYGQGAGTLNMDRGERLGIKPESVQPHRPTTNPNTSKFAQKYGGAEKCSRCGDSVYAAEKIIGAGKPWHKNCFRCAKCGKSLESTTLTEKEGEIYCKGCYAKNFGPKGFGYGQGAGALVHAQ"
,binds,"Myc-tagged human SRF (serum response factor), in vitro translated (protein, UniProt P11831 1-508) MLPTQAGAAAALGRGSALGGSLNRTPTGRPGGGGGTRGANGGRVPGNGAGLGPGRLEREAAAAAATTPAPTAGALYSGSEGDSESGEEEELGAERRGLKRSLSEMEIGMVVGGPEASAAATGGYGPVSGAVSGAKPGKKTRGRVKIKMEFIDNKLRRYTTFSKRKTGIMKKAYELSTLTGTQVLLLVASETGHVYTFATRKLQPMITSETGKALIQTCLNSPDSPPRSDPTTDQRMSATGFEETDLTYQVSESDSSGETKDTLKPAFTVTNLPGTTSTIQTAPSTSTTMQVSSGPSFPITNYLAPVSASVSPSAVSSANGTVLKSTGSGPVSSGGLMQLPTSFTLMPGGAVAQQVPVQAIQVHQAPQQASPSRDSSTDLTQTSSSGTVTLPATIMTSSVPTTVGGHMMYPSPHAVMYAPTSGLGDGSLTVLNAFSQAPSTMQVSHSQVQEPGGVPQVFLTASSGTVQIPVSAVQLHQMAVIGQQAGSSSNLTELQVVNLDTAHSTKSE"
